Laboratory results: paper PMC7862700
The entries are a selection whose mix differs from that of the whole data set. At the low end of the ranking the order means little.

These sequences were tested against T1, ELF5 (UniProt Q9UKW6-2) (assay: DAPPL (digital affinity profiling via proximity ligation, sequencing)). Details: 10 mM Tris-HCl pH 7.5, 50 mM NaCl, 1 mM DTT, 4% glycerol, room temperature, 30 min; GST-TFs on glutathione beads, 16-mer random dsDNA library, 0.1% …; high values mean tight binding; double strand, one strand shown; scale: fold enrichment (6-mer frequency, TF over GST control).
T1 sequence: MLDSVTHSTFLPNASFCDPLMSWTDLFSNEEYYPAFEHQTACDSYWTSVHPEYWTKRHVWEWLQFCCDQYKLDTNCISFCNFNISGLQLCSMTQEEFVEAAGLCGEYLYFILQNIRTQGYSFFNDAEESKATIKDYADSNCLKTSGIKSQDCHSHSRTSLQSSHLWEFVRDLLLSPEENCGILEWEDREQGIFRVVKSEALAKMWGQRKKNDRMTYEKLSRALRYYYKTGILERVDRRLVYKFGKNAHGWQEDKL
Work on TACGGA yielded a binding signal of 1.51.
With TATATC the binding signal was 1.66.
CATAAT was tested, and the binding signal was 0.985.
TGATTC showed a binding signal of 1.03.
In the case of ATCCCA, the binding signal is reported as 1.17.
Work on TAATGG yielded a binding signal of 1.32.
CAACTA gave a binding signal of 1.26.
CGAAAT showed a binding signal of 0.956.
Sequence GTTCTG has a binding signal of 1.1.
In the case of GCCTAC, the binding signal is reported as 1.17.
TAGCAG gave a binding signal of 1.05.
TCAACG gave a binding signal of 0.994.
Work on ACTACG yielded a binding signal of 1.33.
For AAAGCC, the binding signal was 0.992.
GAAAAT gave a binding signal of 1.17.
Work on TAATTC yielded a binding signal of 1.41.
In the case of CCATCT, the binding signal is reported as 1.27.
For AAGCAT, the binding signal was 1.06.
Sequence CCCTGA has a binding signal of 1.06.
With AGATAA the binding signal was 0.997.
Sequence GTTCGA has a binding signal of 0.966.
With GGGTTT the binding signal was 1.1.
Sequence TCCTTA has a binding signal of 2.6.
Sequence CCAATA has a binding signal of 1.13.
ATTAAA gave a binding signal of 1.12.
For CCTCAA, the binding signal was 1.52.
Work on CTCATA yielded a binding signal of 1.39.
With TTGACT the binding signal was 1.08.
Sequence TGAGCT has a binding signal of 0.922.
Sequence AATGTT has a binding signal of 1.62.
TCTGCG was tested, and the binding signal was 1.15.
Work on AACTCC yielded a binding signal of 1.32.
AGCCCA was tested, and the binding signal was 0.9.
Work on ACTCAT yielded a binding signal of 1.32.
For TGGAAT, the binding signal was 1.18.
Work on CGTTCT yielded a binding signal of 1.44.
With TGCTTA the binding signal was 1.03.
AAGGTT gave a binding signal of 1.1.
For CTTAAT, the binding signal was 1.25.
